Here are results for 32 molecules from the supplement of paper PMC12889115.

For the assay, the system named is Salmonella enterica serovar Typhimurium SL1344. In words: bacterial growth OD600 after 18 h with compound and polymyxin B; higher = more bacterial growth (less inhibition). Conditions: 50 µM, Mueller-Hinton broth.

This is one part of the list. These are raw signals, not scaled to a control.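 Primary screen: polymyxin B was added at a level permeabilizing Salmonella outer membranes while sparing inner membranes. DMSO wells, both with and without polymyxin B, established maximum growth. Plate-to-plate variation meant each plate was ranked on its own, and the lowest-OD600 compounds were selected as hits.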

For the molecule `Cc1ccc2c(c1)CN(C1CCSCC1)CC(c1ccsc1)O2` (configuration not stated), the “bacterial growth OD600” value (polymyxin B 0.75 µg/mL) came out at 0.427.
For `CCN1CCC(NC2CC(=O)N(CCc3cccc(Cl)c3)C2)CC1` (configuration not stated), the “bacterial growth OD600” value (polymyxin B 1 µg/mL) turned out to be 0.912.
Same read-out and setting: then `COc1ccccc1OCC(=O)NCC1CCCN(Cc2ccc(O)c(Cl)c2)C1` (configuration not stated), with 0.813.
`O=C(Cc1ccc(N2CCC(NCCC3COc4ccccc4O3)CC2)cc1)NCc1ccccc1` (configuration not stated): for the setting “polymyxin B 0.75 µg/mL”, the “bacterial growth OD600” value is 0.815.
On the same count and under the same terms, then `O=C1N(Cc2cccnc2)C[C@@H]2C[C@@H](c3cccc(C(F)(F)F)c3)N3CCC[C@@]123`, with 0.749.
Turning to `CCc1ccc(CN(C)Cc2nc(-c3ccc(OC)c(OC)c3OC)no2)cc1`, under “polymyxin B 1 µg/mL”, the “bacterial growth OD600” value was determined as 0.906.
Turning to `Cn1cc(CNC(=O)CCN2Cc3ccccc3OC(c3ccccc3F)C2)cn1` (configuration not stated), the “bacterial growth OD600” value (polymyxin B 0.75 µg/mL) was 0.754.
For `O=C(c1ccc(C(F)(F)F)cc1)C1CCCN(C(=O)CSc2ccccn2)C1` (configuration not stated), for the setting “polymyxin B 1 µg/mL”, the “bacterial growth OD600” value was found to be 0.578.
On the same count and under the same terms, under `COc1cccc(NC(=O)CCC2CCN(S(=O)(=O)N(C)C)CC2)c1` stands 0.957; under `Cc1occc1C(=O)NCc1cccnc1N(C)C`, 0.935; under `CC(C)c1ccc(NC2CCCN(C(=O)c3cnn(C(C)C)c3)C2)cc1` (configuration not stated), 0.887.
Still for that read-out and setting: under `COc1ccc(-c2noc(CN(C)Cc3ccccc3)n2)c(OC)c1OC` stands 0.946.
In the case of `COc1ccc(N2C(=O)CN(C(=O)c3ccc(F)cc3F)CC23CCCC3)cc1`, the “bacterial growth OD600” value (polymyxin B 0.75 µg/mL) was 0.777.
Still for that read-out and setting: then `COCCNC(=O)c1sc2ncnc(NCCc3ccccn3)c2c1C`, with 0.792; and `CCOC(=O)C1(CC2CC2)CCN(C(=O)CCn2c(C)nc3ccccc32)CC1`, with 0.787.
With `COCc1ccc(CN2CCCC(CCC(=O)Nc3cc(Cl)ccc3OC)C2)o1` (configuration not stated), the “bacterial growth OD600” value (polymyxin B 1 µg/mL) turned out to be 1.13.
Same read-out and setting: then `CCOc1ccccc1CN1CCN(Cc2ccccc2C)CC1CCO` (configuration not stated), with 1.11.
As to `CN(Cc1ccccc1)C(=O)CCc1nnc(CCc2c[nH]c3ccccc23)o1`, the “bacterial growth OD600” value (polymyxin B 1 µg/mL) worked out at 0.81.
Still for that read-out and setting: under `O=C(c1csc2nc(-c3ccc(C(F)(F)F)cc3)cn12)N1CCN2CCCC2C1` (configuration not stated) stands 0.751.
The same measure, in the same setting: under `CCCCn1c(CN2CCCCC2CCc2ccccn2)cnc1S(=O)(=O)CC` (configuration not stated) stands 0.006.
The same measure, in the same setting: under `O=C(CC(c1ccc(O)cc1)c1ccccc1O)NC1(c2ccccc2)CC1` (configuration not stated) stands 0.712.
For `O=C(NCc1ccc(Cl)s1)C1CCCN(C2CCN(C(=O)C3CC3)CC2)C1` (configuration not stated), the “bacterial growth OD600” value (polymyxin B 0.75 µg/mL) is 0.788.
`O=C(c1ccc(OC2CCN(C(=O)C3CC3)CC2)cc1)N1CCC(c2ccncc2)CC1`: the “bacterial growth OD600” value (polymyxin B 1 µg/mL) came out at 0.936.
For the molecule `CCc1[nH]c2c(CNC(=O)CC3CN(C)CCN3C)cc(F)cc2c1C` (configuration not stated), where the note is “polymyxin B 1 µg/mL”, the “bacterial growth OD600” value came to 1.01.
As for `CN1N=C(C(=O)N2CCCC(CCc3ccccc3)C2)CCC1=O` (configuration not stated), the “bacterial growth OD600” value (polymyxin B 0.75 µg/mL) came out at 0.812.
On the same count and under the same terms, under `COc1ccc(CC2(CCC(=O)NCc3ccc(C(F)(F)F)cc3)CCC(=O)N2)cc1` (configuration not stated) stands 0.773.
Same read-out and setting: then `CCC1CN(CCNC(=O)/C=C/c2cccs2)Cc2cc(OC)ccc2O1` (configuration not stated), with 0.87.
In the case of `CN(C(=O)c1csc2nc(-c3ccc(Cl)cc3)cn12)C1CCOCC1`, the “bacterial growth OD600” value (polymyxin B 1 µg/mL) was determined as 1.14.
With `O=C(Nc1cccc(N2CCC(NCc3cnn(Cc4ccccc4)c3)CC2)c1)c1cccnc1`, the “bacterial growth OD600” value (polymyxin B 0.75 µg/mL) was 0.879.
Still for that read-out and setting: under `O=C(Cc1cccc(F)c1F)N1CCC(C2(c3cccnc3)NC(=O)N(CC3CCCO3)C2=O)CC1` (configuration not stated) stands 0.84.
Consider `CCOC(=O)C1(Cc2ccc(OC)cc2)CCN(C(=O)COC)CC1`, for which, for the setting “polymyxin B 1 µg/mL”, the “bacterial growth OD600” value stood at 0.937.
In the case of `COc1cc(CC2(CCC(=O)N3CCC(Oc4cccc(Cl)c4)CC3)CCC(=O)N2)ccc1F` (configuration not stated), for the setting “polymyxin B 0.75 µg/mL”, the “bacterial growth OD600” value amounted to 0.002.
